HELM strings list residues between dots; [ac] is acetyl, [am] amide, other brackets name non-standard units.
Test: general procedure: Boc solid-phase peptide synthesis; benzhydrylamine resin; DIC
Conditions: whole synthesis, scale 1.0 m moles

In the case of “PEPTIDE1{[pGlu].H.W.S.Y.[Aib].L.R.P.G.[am]}$$$$V2.0”, the crude mass is reported as 0.95 g.
